In article doi:10.1101/2022.03.02.482703:
Read-outs that look alike come from different tables or passages of the source. These are yes or no findings as the source states them, for the method shown. Binding seen in cells or lysates may run through a third protein. Some entries that bind do so weakly or less than the wild type.

Protein sequences, listed by entry. Tags and fused reporters are not part of them. Lines headed by an entry give the natural chain unless they say otherwise; changes in a name come on top.
UniProt P49023: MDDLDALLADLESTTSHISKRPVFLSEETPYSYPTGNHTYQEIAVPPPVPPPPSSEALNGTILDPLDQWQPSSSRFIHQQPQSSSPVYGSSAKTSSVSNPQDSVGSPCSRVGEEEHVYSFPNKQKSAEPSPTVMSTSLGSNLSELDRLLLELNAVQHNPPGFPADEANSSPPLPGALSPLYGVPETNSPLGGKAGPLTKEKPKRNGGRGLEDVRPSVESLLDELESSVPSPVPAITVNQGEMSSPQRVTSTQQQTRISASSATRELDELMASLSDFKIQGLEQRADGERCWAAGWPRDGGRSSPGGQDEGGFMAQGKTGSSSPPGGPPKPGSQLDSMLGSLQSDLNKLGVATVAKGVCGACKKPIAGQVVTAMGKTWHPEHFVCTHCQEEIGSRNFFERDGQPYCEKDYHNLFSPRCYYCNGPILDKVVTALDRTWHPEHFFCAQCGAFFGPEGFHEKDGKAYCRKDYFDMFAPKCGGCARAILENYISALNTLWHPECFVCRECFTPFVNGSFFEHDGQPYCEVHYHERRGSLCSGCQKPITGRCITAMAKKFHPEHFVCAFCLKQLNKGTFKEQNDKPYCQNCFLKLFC

Key:
Assay in all cases: co-IP
[1] = target: non-phosphorylatable human Y118F-Paxillin (Y118F-Paxillin-T2A-GFP) (human) (UniProt P49023)
[2] = target: wildtype human Paxillin (WT-Paxillin-T2A-GFP) (human) (UniProt P49023)
[3] = target: non-phosphorylatable human Y118F-Paxillin (Y118F-Paxillin-T2A-GFP) (human) (UniProt P49023); remark: listed apart in the source
[4] = target: phosphomimetic human Y118E-Paxillin (Y118E-Paxillin-T2A-GFP) (human) (UniProt P49023)
[5] = target: wildtype human Paxillin (WT-Paxillin-T2A-GFP) (human) (UniProt P49023); remark: listed apart in the source
[6] = target: phosphomimetic human Y118E-Paxillin (Y118E-Paxillin-T2A-GFP) (human) (UniProt P49023); remark: listed apart in the source
[7] = target: wildtype human Paxillin (WT-Paxillin-T2A-GFP) (human) (UniProt P49023); remark: listed apart in the source

Row | binding [1] | binding [2] | binding [3] | binding [4] | binding [5] | binding [6] | binding [7] | Molecule
1 | binds | binds | binds | binds | binds |  |  | CRKII (from UniProt Q64010-1 1-304)
2 | binds |  |  |  |  | binds | binds | Vinculin (protein, UniProt Q64727 1-1066) MPVFHTRTIESILEPVAQQISHLVIMHEEGEVDGKAIPDLTAPVAAVQAAVSNLVRVGKETVQTTEDQILKRDMPPAFIKVENACTKLVQAAQMLQSDPYSVPARDYLIDGSRGILSGTSDLLLTFDEAEVRKIIRVCKGILEYLTVAEVVETMEDLVTYTKNLGPGMTKMAKMIDERQQELTHQEHRVMLVNSMNTVKELLPVLISAMKIFVTTKNSKNQGIEEALKNRNFTVEKMSAEINEIIRVLQLTSWDEDAWASKDTEAMKRALASIDSKLNQAKGWLRDPNASPGDAGEQAIRQILDEAGKVGELCAGKERREILGTCKMLGQMTDQVADLRARGQGASPVAMQKAQQVSQGLDVLTAKVENAARKLEAMTNSKQSIAKKIDAAQNWLADPNGGPEGEEQIRGALAEARKIAELCDDPKERDDILRSLGEIAALTSKLGDLRRQGKGDSPEARALAKQVATALQNLQTKTNRAVANSRPAKAAVHLEGKIEQAQRWIDNPTVDDRGVGQAAIRGLVAEGHRLANVMMGPYRQDLLAKCDRVDQLTAQLADLAARGEGESPQARALASQLQDSLKDLKAQMQEAMTQEVSDVFSDTTTPIKLLAVAATAPPDAPNREEVFDERAANFENHSGRLGATAEKAAAVGTANKSTVEGIQASVKTARELTPQVISAARILLRNPGNQAAYEHFETMKNQWIDNVEKMTGLVDEAIDTKSLLDASEEAIKKDLDKCKVAMANIQPQMLVAGATSIARRANRILLVAKREVENSEDPKFREAVKAASDELSKTISPMVMDAKAVAGNISDPGLQKSFLDSGYRILGAVAKVREAFQPQEPDFPPPPPDLEQLRLTDELAPPKPPLPEGEVPPPRPPPPEEKDEEFPEQKAGEVINQPMMMAARQLHDEARKWSSKGNDIIAAAKRMALLMAEMSRLVRGGSGTKRALIQCAKDIAKASDEVTRLAKEVAKQCTDKRIRTNLLQVCERIPTISTQLKILSTVKATMLGRTNISDEESEQATEMLVHNAQNLMQSVKETVREAEAASIKIRTDAGFTLRWVRKTPWYQ
